# Results as given in article PMC4698670.
# No constants are given. Whether binding was seen depends on the method and setting. In cells and extracts the contact can be indirect. A yes stands for co-enrichment or nearness to the bait. Other partners may have been found. Sequences can lack the tags named with a protein.
# T1: fortilin tagged with the haemagglutinin (HA)-epitope at its C-terminal end (not stated (human or mouse cDNA cloned)) (UniProt P13693)
# T1 sequence: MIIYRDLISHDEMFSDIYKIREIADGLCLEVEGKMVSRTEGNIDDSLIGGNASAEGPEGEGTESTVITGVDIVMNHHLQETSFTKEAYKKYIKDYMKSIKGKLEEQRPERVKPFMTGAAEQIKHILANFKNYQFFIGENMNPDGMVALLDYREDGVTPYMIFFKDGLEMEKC
# Biological target: T1, fortilin tagged with the haemagglutinin (HA)-epitope at its C-terminal end (not stated (human or mouse cDNA cloned))
# Assay: affinity purification with mass spectrometry; 10 mg cleared lysate of U2OS_(Fortilin-HA) or U2OS_(Empty-HA) on anti-HA agarose beads overnight at 4 °C; lysis 20 mM HEPES pH 7.4, 35 mM NaCl, 0.001% NP-40; washes with 150 mM NaCl, 0.01% NP-40; SDS-PAGE, SYPRO Ruby, bands excised, MALDI-TOF/TOF
binder,measurement,value
"peroxiredoxin-1 (PRX1), endogenous in U2OS cells (protein, UniProt Q06830 1-199) MSSGNAKIGHPAPNFKATAVMPDGQFKDISLSDYKGKYVVFFFYPLDFTFVCPTEIIAFSDRAEEFKKLNCQVIGASVDSHFCHLAWVNTPKKQGGLGPMNIPLVSDPKRTIAQDYGVLKADEGISFRGLFIIDDKGILRQITVNDLPVGRSVDETLRLVQAFQFTDKHGEVCPAGWKPGSDTIKPDVQKSKEYFSKQK",binding,binds
